In article doi:10.1101/2020.05.18.102301:
These are yes or no findings as the source states them, for the method shown. Binding calls can cover weak binding; strength is not graded here.

Key:
Test in all cases: two-hybrid
[1] = molecular target: SlRNR2 (a small subunit of the RNR complex) (tomato (S. lycopersicum))
[2] = molecular target: SlRNRL1 (ribonucleotide reductase large subunit 1) (tomato (S. lycopersicum))
[3] = molecular target: SlRNRL2 (ribonucleotide reductase large subunit 2) (tomato (S. lycopersicum))

binding [1]	binding [2]	binding [3]	Substance
binds			SlRNRL1 (ribonucleotide reductase large subunit 1) (from UniProt A0A3Q7GRB4)
binds			SlRNRL2 (ribonucleotide reductase large subunit 2) (from UniProt A0A3Q7G4T7)
	binds	binds	SlRNR2 (a small subunit of the RNR complex) (from UniProt A0A3Q7EHT3)
